Source: publication PMC5490399, “Glycosaminoglycan Binding and Non-Endocytic Membrane Translocation of Cell-Permeable Octaarginine Monitored by Real-Time In-Cell NMR Spectroscopy” (Pharmaceuticals, 2017)
“And” between values parts separate entries of the source, which are not always exact repeats. Equal entries are not always repeated.

Tests used:
ITC of R8 with heparin = type: binding, porcine; details: 25 °C
[1] = ITC of R8 with EPC/EPG LUV (model cell membrane); type: binding; details: 25 °C
[2] = 10 mM Tris-HCl, 15 mM NaCl, pH 7.4

CC(=O)N[C@@H](CCCNC(=N)N)C(=O)N[C@@H](CCCNC(=N)N)C(=O)N[C@@H](CCCNC(=N)N)C(=O)N[C@@H](CCCNC(=N)N)C(=O)N[C@@H](CCCNC(=N)N)C(=O)N[C@@H](CCCNC(=N)N)C(=O)N[C@@H](CCCNC(=N)N)C(=O)N[C@@H](CCCNC(=N)N)C(N)=O [R8, octaarginine]
ΔH° (ITC of R8 with heparin; [2]): -9.6 ± 0.53 kcal/mol | TΔS° (ITC of R8 with heparin; pH 7.4, TΔS° = ΔH° − ΔG°): 1.3 ± 0.54 kcal/mol | ΔG° (binding free energy) (ITC of R8 with heparin; pH 7.4, ΔG° = −RTlnK): -10.9 kcal/mol and -10.9 ± 0.10 kcal/mol | ΔH° [1, 2]: -6.3 ± 0.10 kcal/mol | Binding Stoichiometry (n), lipid/R8 ([1]; 10 mM Tris-HCl, 15 mM NaCl, pH 7.4, R8 (51 μM) injected into EPC/EPG LUV (500 μM), PC/PG = 4/1, molar ratio lipid/peptide, single site binding model): ~ 100 and 100 | TΔS° ([1]; pH 7.4, TΔS° = ΔH° − ΔG°): 2.1 ± 0.10 kcal/mol | ΔG° (binding free energy) ([1]; pH 7.4, ΔG° = −RTlnK): -8.4 kcal/mol and -8.4 ± 0.10 kcal/mol
